In patent US20100311643A1, “USE OF GLP-1 AS A THERAPEUTIC AGENT” (priority 2007, published 2010):
Part of at least one peptide drawing is inferred or uncertain, most often the ends.

Experiments:
Type in all cases: cell-based
[1] = tested on: hepatitis B virus (HBV) ayw strain; experiment: HBV experimental assay system (secreted HBV DNA by TaqMan PCR); conditions: test peptide 10 micrograms per ml; six days; HBV DNA in supernatant
HIV-1IIIB = experiment: HIV-1 antiviral assay (CPE reduction, MTS staining); conditions: test peptide 10 micrograms per ml; 6 days post-infection; triplicate
HCMV strain AD169 = experiment: HCMV plaque reduction assay; conditions: HCMV AD169 in MRC-5 cells; peptide 10 micrograms per ml; 7-10 days

## CC[C@H](C)[C@H](NC(=O)[C@H](Cc1ccccc1)NC(=O)[C@H](CCC(=O)O)NC(=O)[C@H](CCCCN)NC(=O)[C@H](C)NC(=O)[C@H](C)NC(=O)[C@H](CCC(N)=O)NC(=O)CNC(=O)[C@H](CCC(=O)O)NC(=O)[C@H](CC(C)C)NC(=O)[C@H](Cc1ccc(O)cc1)NC(=O)[C@H](CO)NC(=O)[C@H](CO)NC(=O)[C@@H](NC(=O)[C@H](CC(=O)O)NC(=O)[C@H](CO)NC(=O)[C@@H](NC(=O)[C@H](Cc1ccccc1)NC(=O)[C@@H](NC(=O)CNC(=O)[C@H](CCC(=O)O)NC(=O)[C@H](C)NC(=O)[C@H](Cc1c[nH]cn1)NC(=O)[C@H](CCCNC(=N)N)NC(=O)[C@H](CCC(=O)O)NC(=O)[C@H](Cc1ccccc1)NC(=O)[C@H](CCC(=O)O)NC(=O)[C@H](CC(=O)O)NC(=O)[C@@H](N)Cc1c[nH]cn1)[C@@H](C)O)[C@@H](C)O)C(C)C)C(=O)N[C@@H](C)C(=O)N[C@@H](Cc1c[nH]c2ccccc12)C(=O)N[C@@H](CC(C)C)C(=O)N[C@H](C(=O)N[C@@H](CCCCN)C(=O)NCC(=O)N[C@@H](CCCNC(=N)N)C(=O)NCC(=O)O)C(C)C [GLP-1]
[1]
  % inhibition of HBV replication in HEP G2 cells: 62.3%
HIV-1IIIB
  % CPE reduction in HIV-1 infected CEM-SS cells: 0.0%
HCMV strain AD169
  % plaque reduction: 8.4%
